PubChem BioAssay AID1671195, Yale University | 2021

Purpose: 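Genes whose knockdown alters LDL uptake in liver cancer cells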 (primary screen)
System: human Huh7 hepatoma cells
Reagents: siRNA pool against human genes, 18 nM
Timing: about 2 to 2.5 days of knockdown, then 8 h LDL uptake
Treatment: DiI-labelled LDL at 30 µg/ml for 8 h, in lipoprotein-deficient serum medium
Detection: 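Per-cell DiI-LDL intensity by automated imaging; well means scaled to the plate median and given as a robust z-score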
Reading the numbers: robust z-score: higher = more LDL uptake after knockdown
Active means: 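a gene counts as active if at least two replicate z-scores exceed ±2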
The whole screen tested about 22,000 reagents; below is an unselected part. About 1,510 of them (6.9%) count as active. 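Active includes knockdowns raising or lowering LDL uptake; positive z-scores mean more uptake, negative mean less.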 Entries without a mark were called inactive.

PPY | robust z-score, replicate 1: -0.402; robust z-score, replicate 2: 2.29; robust z-score, replicate 3: -0.395
B4GALT4 | robust z-score, replicate 1: 1.13; robust z-score, replicate 2: -0.00357; robust z-score, replicate 3: 0.836
SP8 | robust z-score, replicate 1: 2.85 (active); robust z-score, replicate 2: 2.21; robust z-score, replicate 3: 2.49
PABPC1P4 | robust z-score, replicate 1: 2.59; robust z-score, replicate 2: 1.78; robust z-score, replicate 3: 1.72
RPH3AL | robust z-score, replicate 1: -0.228; robust z-score, replicate 2: -0.59; robust z-score, replicate 3: -0.521
GPM6B | robust z-score, replicate 1: -1.29; robust z-score, replicate 2: -1.1; robust z-score, replicate 3: -1.07
PPP1R1C | robust z-score, replicate 1: 2.72 (active); robust z-score, replicate 2: 3.07; robust z-score, replicate 3: 3.42
CCDC12 | robust z-score, replicate 1: 0.709; robust z-score, replicate 2: 0.69; robust z-score, replicate 3: -0.168
IFNA6 | robust z-score, replicate 1: 2.47 (active); robust z-score, replicate 2: 1.65; robust z-score, replicate 3: 2.39
CDH6 | robust z-score, replicate 1: -1.41; robust z-score, replicate 2: -1.28; robust z-score, replicate 3: -1.38
OR2F1 | robust z-score, replicate 1: 0.451; robust z-score, replicate 2: -1.14; robust z-score, replicate 3: 0.294
ATAT1 | robust z-score, replicate 1: 0.899; robust z-score, replicate 2: 0.485; robust z-score, replicate 3: 0.0903
RGPD5 | robust z-score, replicate 1: 0.508; robust z-score, replicate 2: 0.0619; robust z-score, replicate 3: -0.223
BET1 | robust z-score, replicate 1: -0.387; robust z-score, replicate 2: -0.415; robust z-score, replicate 3: -0.273
OR7C2 | robust z-score, replicate 1: 0.0172; robust z-score, replicate 2: 0.895; robust z-score, replicate 3: -0.229
SAP130 | robust z-score, replicate 1: -0.168; robust z-score, replicate 2: -0.245; robust z-score, replicate 3: 0.0934
MRPL39 | robust z-score, replicate 1: 3.09; robust z-score, replicate 2: 1.96; robust z-score, replicate 3: 1.93
ILDR1 | robust z-score, replicate 1: 0.981; robust z-score, replicate 2: 0.74; robust z-score, replicate 3: 0.632
ZNF324 | robust z-score, replicate 1: 1.27; robust z-score, replicate 2: 1.22; robust z-score, replicate 3: 1.45
GATA1 | robust z-score, replicate 1: -0.703; robust z-score, replicate 2: -0.994; robust z-score, replicate 3: -0.937
PGAM2 | robust z-score, replicate 1: -2.35 (active); robust z-score, replicate 2: -2.37; robust z-score, replicate 3: -2.23
DNAJC2 | robust z-score, replicate 1: 0.76; robust z-score, replicate 2: 0.686; robust z-score, replicate 3: 0.286
RAB34 | robust z-score, replicate 1: 0.143; robust z-score, replicate 2: 2.31; robust z-score, replicate 3: 1.44
MSANTD3 | robust z-score, replicate 1: -0.174; robust z-score, replicate 2: -0.383; robust z-score, replicate 3: 0.63

Copied from the list.
For “robust z-score, replicate 3”, RPH3AL has -0.521
Under “robust z-score, replicate 2”, MSANTD3 reads -0.383
Value for GATA1 under “robust z-score, replicate 2”: -0.994
